Patent US20230279127A1
Where a chain is given by its changes, count along the chain named. No constants are given. Whether binding was seen depends on the method and setting. Some binding calls cover weakened binding; strength is not graded here.

Protein sequences, listed by entry. Tags and fused reporters are not part of them. Lines headed by an entry give the natural chain unless they say otherwise; changes in a name come on top.
UniProt P97378: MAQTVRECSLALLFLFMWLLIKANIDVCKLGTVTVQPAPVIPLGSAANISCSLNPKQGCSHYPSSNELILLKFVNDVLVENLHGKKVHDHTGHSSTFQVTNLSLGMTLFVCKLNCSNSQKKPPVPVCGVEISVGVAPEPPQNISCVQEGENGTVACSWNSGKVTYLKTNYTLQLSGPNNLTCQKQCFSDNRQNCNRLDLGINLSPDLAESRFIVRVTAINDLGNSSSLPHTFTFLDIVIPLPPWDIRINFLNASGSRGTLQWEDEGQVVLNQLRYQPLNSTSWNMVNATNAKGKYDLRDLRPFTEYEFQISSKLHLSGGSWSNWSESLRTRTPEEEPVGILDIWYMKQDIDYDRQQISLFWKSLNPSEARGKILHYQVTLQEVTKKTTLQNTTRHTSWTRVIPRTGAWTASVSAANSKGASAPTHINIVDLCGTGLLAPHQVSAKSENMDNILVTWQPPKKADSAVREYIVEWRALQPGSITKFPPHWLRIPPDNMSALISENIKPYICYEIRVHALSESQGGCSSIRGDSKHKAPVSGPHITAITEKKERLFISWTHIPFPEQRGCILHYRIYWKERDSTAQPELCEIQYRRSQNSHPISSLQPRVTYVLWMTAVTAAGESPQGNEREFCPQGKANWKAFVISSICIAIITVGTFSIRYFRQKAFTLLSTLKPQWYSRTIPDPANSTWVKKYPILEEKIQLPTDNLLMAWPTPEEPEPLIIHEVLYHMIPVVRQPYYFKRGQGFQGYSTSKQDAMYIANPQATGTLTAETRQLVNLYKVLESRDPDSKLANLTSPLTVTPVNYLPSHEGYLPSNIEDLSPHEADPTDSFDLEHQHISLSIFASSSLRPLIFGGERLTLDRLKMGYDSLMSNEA

How the values were obtained:
[1] = target: T1, mouse IL12 receptor subunit beta-1 (mIL12Rb1) (mouse) (UniProt Q60837); assay: ELISA, antigen-coated plate, anti-VHH-HRP detection (FIG. 5)
T1 sequence: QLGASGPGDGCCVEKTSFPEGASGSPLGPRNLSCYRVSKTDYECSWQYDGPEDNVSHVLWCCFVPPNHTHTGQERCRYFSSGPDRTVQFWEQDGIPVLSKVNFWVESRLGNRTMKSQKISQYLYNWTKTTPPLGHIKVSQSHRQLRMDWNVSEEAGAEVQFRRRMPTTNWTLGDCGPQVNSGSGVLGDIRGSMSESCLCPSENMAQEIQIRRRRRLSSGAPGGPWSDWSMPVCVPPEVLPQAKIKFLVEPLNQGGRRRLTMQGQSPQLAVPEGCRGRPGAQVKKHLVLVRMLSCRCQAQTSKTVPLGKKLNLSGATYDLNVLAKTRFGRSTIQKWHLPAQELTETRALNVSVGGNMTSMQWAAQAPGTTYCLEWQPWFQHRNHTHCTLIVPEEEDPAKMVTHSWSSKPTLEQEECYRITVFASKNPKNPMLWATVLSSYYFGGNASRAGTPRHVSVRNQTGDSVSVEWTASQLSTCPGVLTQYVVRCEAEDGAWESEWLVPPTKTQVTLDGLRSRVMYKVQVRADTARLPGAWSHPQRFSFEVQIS

[2] = target: extracellular domain of mIL12Rb2 (mouse) (UniProt P97378); assay: ELISA, antigen-coated plate, anti-VHH-HRP detection (FIG. 6)

B1: DR283 (mIL12Rb1_VHH1) (VHH)
VHH: QVQLQESGGGSVQAGGSLRLSCTASGYTYSSAFMAWFRQAPGKEREGVAAIYTRDGGTVYADSVKGRFTISQDNAKNTLYLQMNSLKAEDTAMYYCAAKIPQPGRASLLDSQTYDYWGQGTQVTVSS
- binding [1]: binds

B2: DR306 (mIL12Rb2_VHH4) (VHH)
VHH: QVQLQESGGGSVQVGGSLRLSCAVSGKLYGGAWFRQAQGKGREGVAAIWIGTGTTFYADSVKGRFTISRDNAKNTVYLQMDGLKPEDTALYYCAADDRPGYRDPLAPVSYNHWGQGTQVTVSS
- binding [2]: binds

B3: DR307 (mIL12Rb2_VHH5) (VHH)
VHH: QVQLQESGGGSVQAGGSLRLSCAASGITYRGVWMGWFRQAPGKEREGVATIYTGSGHTYYADSVKGRFTISQDNAKNTVYLQMNSLKPEDTAMYYCAARTVGGTFYTLAADSFNTWGQGTQVTVSS
- binding [2]: binds

B4: DR284 (mIL12Rb1_VHH2) (VHH)
VHH: QVQLQESGGGSVQAGGSLRLSCAVSGYDYCGYDVRWYRQAPGKEREFVSGIDSDGSTSYADSVKGRFTISQDNAENTSYLHMFSLKPEDTAMYYCKTESPAGESAWCRNFRGMDYWGKGTQVTVSS
- binding [1]: binds

B5: DR285 (mIL12Rb1_VHH3) (VHH)
VHH: QVQLQESGGGSVQAGGSLRLSCVASGYSYCGYDMMWYRQAPGKEREFVALITSDYSIRYEDSVEGRFSISRDNAKNTGYLLMSNLTPADTAIYYCKTSTAARESSWCRSRYRVASWGQGTQVTVSS
- binding [1]: binds

B6: DR286 (mIL12Rb1_VHH4) (VHH)
VHH: QVQLQESGGGSVQAGGSLRLSCAASRYTYTNNFMAWFRQAPGKEREGVAAIYTGDGYAYYFDSVKGRFTISQDNDKNMLYLQMNSLKPEDTAMYYCAAMERRSGRRRMTENAEYKYWGQGTQVTVSS
- binding [1]: binds

B7: DR287 (mIL12Rb1_VHH5) (VHH)
VHH: QVQLQESGGGSVQAGETLRLSCTVSGFTIDDSEMGWYRQAPGHECELVASGSSDDDTYYVDSVKGRFTISLDNAKNMVYLQMNSLKPEDTAVYYCATGPTYPPKDGDCAHWGQGTQVTVSS
- binding [1]: binds

B8: DR288 (mIL12Rb1_VHH6) (VHH)
VHH: B1 VHH with G57S, T58P, V64L, Y80H, A88P, Q102E, A106I, Q119H
- binding [1]: binds

B9: DR289 (mIL12Rb1_VHH7) (VHH)
VHH: B4 VHH with Q39R
- binding [1]: binds

B10: DR303 (mIL12Rb2_VHH1) (VHH)
VHH: QVQLQESGGGSVQAGGSLRLSCAASGYTYSNRHMGWFRQAPGKEREGVAAIYTGGGSTYYADSVKDRFTISQDNAKNTLYLQMNSLTPEDTAMYYCAADLTRWYSGGWRDPRGYKYWGQGTQVTVS
- binding [2]: binds

B11: DR304 (mIL12Rb2_VHH2) (VHH)
VHH: QVQLQESGGGSVQAGGSLRLSCAASGVTYGSYYMAAWFRQAPGKEREGVASIYGGSDSTYYADSVLGRFTISQDNGKNTLYLQMNSLKPDDTAMYYCAAAPPGKWFLKRLEGHNYSYWGQGTQVTVSS
- binding [2]: binds
